Source: PubChem BioAssay AID743266 (National Center for Advancing Translational Sciences (NCATS), 2014)
Out of some 410,000 compounds screened, about 310 (0.076%) were called active. The shares of active, inactive and inconclusive entries below differ from those in the screen. The call rests on the fitted dose curve; in most records, active means well fitted activation curve with a large enough effect; inconclusive means small, poorly fitted or top-dose-only effect, or another doubt; inactive means no such curve, though single readings can be large or run the other way. Potencies beside an inconclusive call are fits to weak or partial responses and may not hold up.

Sequences of proteins named here, by UniProt entry; tags and fusion partners are left off.
UniProt Q03431, whole entry, looked up: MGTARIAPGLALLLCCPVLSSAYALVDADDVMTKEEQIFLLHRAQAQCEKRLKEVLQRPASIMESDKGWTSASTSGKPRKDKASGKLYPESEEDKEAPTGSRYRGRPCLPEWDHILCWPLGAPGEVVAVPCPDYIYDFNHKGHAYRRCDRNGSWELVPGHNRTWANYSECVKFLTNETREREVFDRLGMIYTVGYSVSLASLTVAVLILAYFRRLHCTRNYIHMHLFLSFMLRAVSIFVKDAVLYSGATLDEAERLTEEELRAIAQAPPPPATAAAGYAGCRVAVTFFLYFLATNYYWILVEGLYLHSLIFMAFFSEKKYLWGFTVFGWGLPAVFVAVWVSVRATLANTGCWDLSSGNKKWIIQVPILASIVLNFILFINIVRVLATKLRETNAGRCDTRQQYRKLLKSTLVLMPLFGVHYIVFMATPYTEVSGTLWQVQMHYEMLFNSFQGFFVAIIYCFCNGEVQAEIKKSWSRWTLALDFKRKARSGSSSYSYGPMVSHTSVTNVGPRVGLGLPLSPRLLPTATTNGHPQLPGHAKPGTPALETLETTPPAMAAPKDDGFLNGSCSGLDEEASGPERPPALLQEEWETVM

target: Parathyroid hormone/parathyroid hormone-related peptide receptor (Homo sapiens) (UniProt Q03431); assay: qHTS for PTHR1 Agonists: Primary Screen; conditions: HEK293 GP2 PTHR1 cells, GloSensor cAMP luminescence, 1 h; activation: at 115 µM (top of the series) unless noted; series mostly up to 115 µM; further: nearly all actives have a fitted effect of over 55% in size
Method in brief: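 HEK-293-derived GP2 cells expressing PTHR1 and a GloSensor cAMP reporter, 3,000/well, plated overnight, given luciferin plus IBMX (each 0.5 mM as added) for 1 h at 37 °C, then compound for 1 h at 37 °C. Luminescence was read after 15 min at room temperature.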
Potency means the concentration at half of the fitted maximal effect.

activation, inconclusive:
CC1(C)Cc2nc3sc4c(SCC(=O)NC(c5ccccc5)c5ccccc5)ncnc4c3cc2CO1 -63.5% [activator] [at 57.5 µM]
COc1cc(NS(=O)(=O)c2ccc(NC(=O)CCC(=O)O)cc2)nc(OC)n1 51.8% [activator]
COCCC(=O)N1CCC(Oc2ccc(C(=O)NCCc3ccccn3)cc2)CC1 35% [activator]
Cc1ccc(N(CC(=O)NCc2cccs2)S(=O)(=O)c2cccs2)cc1 -74.8% [activator]
O=C(NC(c1ccccc1)c1ccccc1)c1ccc(Br)o1 38.2% [activator] [at 57.5 µM]
CN(C)S(=O)(=O)Nc1ccccc1C(N)=O -9.41% [activator] [at 57.5 µM]
CCOc1ccc(OCc2ccc(C(=O)N3N=C(C(F)F)CC3(O)C(F)F)o2)cc1 (configuration not stated) 56.9% [activator] [at 57.5 µM]
CCCn1c(=O)c2c(C(F)(F)F)cc(-c3ccco3)nc2n(CCC)c1=O 36.3% [activator]
Nc1ncnc2c1ncn2[C@@H]1O[C@H](C(=O)N[C@H]2c3ccccc3C[C@H]2OC=O)[C@@H](O)[C@H]1O 36.3% [activator]
NC(=O)C(c1ccccc1)C1CCCCC1 (configuration not stated) -60.4% [activator] [at 57.5 µM]

Five entries out of the list, sorted by count of non-hydrogen atoms, smallest number first:
activation, inconclusive:
O=C(NC(c1ccccc1)c1ccccc1)c1ccc(Br)o1 38.2% [activator] [at 57.5 µM]
CCCn1c(=O)c2c(C(F)(F)F)cc(-c3ccco3)nc2n(CCC)c1=O 36.3% [activator]
COc1cc(NS(=O)(=O)c2ccc(NC(=O)CCC(=O)O)cc2)nc(OC)n1 51.8% [activator]
Nc1ncnc2c1ncn2[C@@H]1O[C@H](C(=O)N[C@H]2c3ccccc3C[C@H]2OC=O)[C@@H](O)[C@H]1O 36.3% [activator]
CC1(C)Cc2nc3sc4c(SCC(=O)NC(c5ccccc5)c5ccccc5)ncnc4c3cc2CO1 -63.5% [activator] [at 57.5 µM]

Following part.

activation, inactive:
Cc1ccc(CNC(=O)c2ccc3oc(=O)n(Cc4ccccc4)c3c2)cc1 -0.686%
OC(CNC1CCCCC1)CON=C1CCSc2c(Cl)cccc21 (configuration not stated) -19.7%
Fc1ccccc1/C=N/Nc1ncnc2ccccc12 -23.6%
C=CC[C@@H](CC(=O)N[C@@H](CO)Cc1ccccc1)C(=O)N[C@H](COC(=O)[C@@H](CC=C)Cc1ccc(F)cc1)Cc1ccccc1 -8.98%
O=S(=O)(NCC(c1ccco1)N1CCN(c2ccc(F)cc2)CC1)c1ccc2c(c1)OCCO2 (configuration not stated) -31.2%
Cc1ccc(-n2ncc3c(Nc4ccc5c(c4)OCCO5)ncnc32)cc1C -92.8%
CCC/C=C/c1ccc(CN2C(CC(C)C)C(=O)N(Cc3cn(CC4CCCCC4)nn3)CCS2(=O)=O)cc1 (configuration not stated) -45.1%
Cc1cccc(C(=O)Nc2nc3c(s2)CCCC3)c1 -18.8%
COc1ccc(-c2ccc3[nH]c4c(c3c2)CCN2C[C@@H]([C@H](C)O)[C@@H](N(C)C(=O)Nc3cc(Cl)cc(Cl)c3)C[C@@H]42)cc1 -1.85%
O=C(NCCn1cc(SCc2ccc(C(F)(F)F)cc2)c2ccccc21)c1cccs1 -38.4%
CC(C(=O)Nc1ccc(C#N)cc1)N1CCN(C(=O)C2CC2)CC1 (configuration not stated) -13.3%
Cc1cccc(C(=O)NC(=S)NNC(=O)COc2ccc(Cl)cc2)c1 -9.29%
FC(F)(F)c1cccc(OCCN2CCN(Cc3ccccc3)CC2)c1 -2.49%
COc1ccc(/C=C/C(=O)c2ccccn2)cc1 -28%
O=C(COCc1cc(-c2ccc(F)cc2)on1)Nc1cc(Cl)cc(Cl)c1 -75.7%
Cc1ccc(-n2c3c(c(=O)[nH]c2=O)C(NC(=O)C(C)(C)C)(C(F)(F)F)C(=O)N3)cc1 (configuration not stated) -13.7%
CCCCN(C)c1nc(-c2ccco2)c2c(c1C#N)CC(C)(C)OC2 -46.7%

Potency, inconclusive:
Cc1cc(C)c2c(n1)nn1c(C)c(CCC(=O)Nc3ccc(C)c(Cl)c3)c(C)nc21 15.8 µM [activator, partial curve, poor fit]
O=c1c(S(=O)(=O)c2ccccc2)cn(Cc2ccc(F)cc2)c2cc(N3CCCC3)c(F)cc12 50.1 µM [activator, partial curve, poor fit]
CCCN1C(=O)c2ccc(C(=O)NCc3ccco3)cc2C1=O 3.16 µM [activator, single point]
CN(/C(=N\S(=O)(=O)c1ccccc1)C(F)(F)F)c1ccccc1 70.8 µM [activator, single point]
O=C(NCCCN1CCOCC1)c1cc(-c2ccccc2)on1 17.8 µM [activator, partial curve]
COc1ccc(CNC(=O)CN(Cc2ccccc2F)C(=O)c2csnn2)cc1 14.1 µM [activator, partial curve, poor fit]
O=C(CC1C(=O)OCC2CCCCN21)Nc1ccccc1C(F)(F)F (configuration not stated) 2.24 µM [activator, partial curve, poor fit]
CCOC(=O)c1ccc(-c2ccc(/C=C(\C#N)C(=O)Nc3cccc(C)c3)o2)cc1 7.94 µM [activator, partial curve]
Cc1ccc(S(=O)(=O)N2CC3(C)CN(S(=O)(=O)c4ccc(C)cc4)CC(C)(C2)C3O)cc1 (configuration not stated) 39.8 µM [activator, single point]
Cc1nc2c(-c3ccc(F)cc3)c(C)[nH]n2c(=O)c1Cl 126 µM [activator, single point]
COc1ccc(N(C)S(=O)(=O)c2cccc(C(=O)NC3=NCCS3)c2)cc1 3.98 µM [activator, partial curve]
CC(=O)Oc1cc(O)c2c(c1)OC(c1ccc(OC(C)=O)c(OC(C)=O)c1)C(OC(C)=O)C2=O (configuration not stated) 8.91 µM [activator, full curve, poor fit]
CNc1nc(Nc2ccc(C)c(Cl)c2)c2cnn(C)c2n1 44.7 µM [activator, partial curve, poor fit]
O=c1cc(CN2CCN(c3ccccc3)CC2)c2c(ccc3ccccc32)o1 15.8 µM [activator, partial curve]
CN1CCN(c2ccc(-c3cc(NC=O)c4ncc(-c5ccc(F)cc5)n4c3)cc2)CC1 28.2 µM [activator, single point]
COC(=O)C(NNc1ccccc1)(NC(=O)c1ccc(F)cc1)C(F)(F)F (configuration not stated) 35.5 µM [activator, single point]
Cc1cc(Cl)ccc1OC(C)c1nnc(N)s1 (configuration not stated) 1.58 µM [activator, full curve, poor fit]
C/C(CC(C)C)=N\NS(=O)(=O)c1ccc(C)c([N+](=O)[O-])c1 25.1 µM [activator, partial curve]
Cc1nnc(Nc2ccc(C(=O)N3CCOCC3)cc2)c2ccccc12 39.8 µM [activator, single point]
COc1ccc(C2=Nc3ccc(C)cc3C(c3ccccc3)N2CC(=O)NN)cc1 (configuration not stated) 39.8 µM [activator, full curve, poor fit]
COc1ccc(CN2C(=O)c3ccccc3C2=O)cc1 79.4 µM [activator, partial curve, poor fit]
O=C(NCc1cccnc1)c1ccc2c(=O)n(CCCN3CCCC3=O)c(=S)[nH]c2c1 50.1 µM [activator, partial curve, poor fit]
O=C(c1cccnc1)N1N=C(C2CC2)CC1(O)C(F)(F)F (configuration not stated) 89.1 µM [activator, single point]
COc1cccc(C(C(=O)NC2CCCCC2)N(C(=O)CNC(=O)c2ccco2)c2cccnc2)c1 (configuration not stated) 50.1 µM [activator, partial curve, poor fit]
C=CCn1c(SCc2ccccc2)nc(O)cc1=O 50.1 µM [activator, single point]
CN(C)c1oc(-c2ccc(OCc3ccc(Cl)cc3)cc2)nc1C#N 11.2 µM [activator, partial curve, poor fit]
CCCNC(=O)c1ccccc1NC(=O)c1ccc2c(=O)n3c(nc2c1)CCC3 79.4 µM [activator, single point]
CN1CCC(N(C)C(=O)c2cc(S(=O)(=O)N(C)c3ccccc3)ccc2Cl)CC1 17.8 µM [activator, partial curve]
CO/N=C/c1cccn1-c1nccc(N(C)C)c1C#N 50.1 µM [activator, partial curve, poor fit]
O=C(COC(=O)c1cc[n+]([O-])cc1)Nc1cccc(Br)c1 50.1 µM [activator, full curve, poor fit]
COc1cccc(C(=O)NCC(c2ccc3c(c2)OCO3)N2CCN(C)CC2)c1 (configuration not stated) 56.2 µM [activator, partial curve, poor fit]
COc1ccc(OC)c(Nc2nc(-c3sc(NC(=O)C(C)(C)C)nc3C)cs2)c1 2.51 µM [activator, full curve, poor fit]
COc1cc(C(=O)N(CCCN(C)C)c2nc3c(OC)cccc3s2)cc(OC)c1OC 158 µM [activator, single point]

outcome, inactive:
COc1ccc(-c2nc(SCC(=O)NC3CCCC3)c(-c3ccccc3)[nH]2)cc1OC
COc1ccc(-c2cc(-n3c(C(F)(F)F)nc4ccccc43)n(CCC#N)n2)cc1 inactive [at 57.5 µM]
COc1ccc(Cl)cc1C(=O)NCC(c1ccco1)N1CCCC1 (configuration not stated) inactive [at 57.5 µM]
COc1ccc(-c2cnc3c(NC(C)=O)cc(-c4ccc(C(=O)NC5CC5)cc4)cn23)cc1OC
COc1cc2c(cc1OC)C(C)N(C(=O)c1cccc([N+](=O)[O-])c1)CC2 (configuration not stated)
Nc1scc2c(C(=O)N/N=C/c3ccc(Cl)cc3)nn(-c3ccccc3)c(=O)c12
O=C(CN(Cc1ccco1)C(=O)c1cc(=O)[nH]c2ccccc12)Nc1ccccc1Br inactive [at 57.5 µM]
